Results are given in words; binding and its absence hold for the method and conditions named. In cells and extracts the contact can be indirect. These calls come from enrichment with a bait or labelling near it, and not all partners need be listed.
Molecular target: Zinc Finger ZZ-Type And EF-Hand Domain Containing 1 (ZZEF1) (human (endogenous in MDA-MB-231)) (UniProt O43149)
Test: affinity purification with mass spectrometry

Chains of the proteins cited; added tags and fusions are not shown.
UniProt O43149: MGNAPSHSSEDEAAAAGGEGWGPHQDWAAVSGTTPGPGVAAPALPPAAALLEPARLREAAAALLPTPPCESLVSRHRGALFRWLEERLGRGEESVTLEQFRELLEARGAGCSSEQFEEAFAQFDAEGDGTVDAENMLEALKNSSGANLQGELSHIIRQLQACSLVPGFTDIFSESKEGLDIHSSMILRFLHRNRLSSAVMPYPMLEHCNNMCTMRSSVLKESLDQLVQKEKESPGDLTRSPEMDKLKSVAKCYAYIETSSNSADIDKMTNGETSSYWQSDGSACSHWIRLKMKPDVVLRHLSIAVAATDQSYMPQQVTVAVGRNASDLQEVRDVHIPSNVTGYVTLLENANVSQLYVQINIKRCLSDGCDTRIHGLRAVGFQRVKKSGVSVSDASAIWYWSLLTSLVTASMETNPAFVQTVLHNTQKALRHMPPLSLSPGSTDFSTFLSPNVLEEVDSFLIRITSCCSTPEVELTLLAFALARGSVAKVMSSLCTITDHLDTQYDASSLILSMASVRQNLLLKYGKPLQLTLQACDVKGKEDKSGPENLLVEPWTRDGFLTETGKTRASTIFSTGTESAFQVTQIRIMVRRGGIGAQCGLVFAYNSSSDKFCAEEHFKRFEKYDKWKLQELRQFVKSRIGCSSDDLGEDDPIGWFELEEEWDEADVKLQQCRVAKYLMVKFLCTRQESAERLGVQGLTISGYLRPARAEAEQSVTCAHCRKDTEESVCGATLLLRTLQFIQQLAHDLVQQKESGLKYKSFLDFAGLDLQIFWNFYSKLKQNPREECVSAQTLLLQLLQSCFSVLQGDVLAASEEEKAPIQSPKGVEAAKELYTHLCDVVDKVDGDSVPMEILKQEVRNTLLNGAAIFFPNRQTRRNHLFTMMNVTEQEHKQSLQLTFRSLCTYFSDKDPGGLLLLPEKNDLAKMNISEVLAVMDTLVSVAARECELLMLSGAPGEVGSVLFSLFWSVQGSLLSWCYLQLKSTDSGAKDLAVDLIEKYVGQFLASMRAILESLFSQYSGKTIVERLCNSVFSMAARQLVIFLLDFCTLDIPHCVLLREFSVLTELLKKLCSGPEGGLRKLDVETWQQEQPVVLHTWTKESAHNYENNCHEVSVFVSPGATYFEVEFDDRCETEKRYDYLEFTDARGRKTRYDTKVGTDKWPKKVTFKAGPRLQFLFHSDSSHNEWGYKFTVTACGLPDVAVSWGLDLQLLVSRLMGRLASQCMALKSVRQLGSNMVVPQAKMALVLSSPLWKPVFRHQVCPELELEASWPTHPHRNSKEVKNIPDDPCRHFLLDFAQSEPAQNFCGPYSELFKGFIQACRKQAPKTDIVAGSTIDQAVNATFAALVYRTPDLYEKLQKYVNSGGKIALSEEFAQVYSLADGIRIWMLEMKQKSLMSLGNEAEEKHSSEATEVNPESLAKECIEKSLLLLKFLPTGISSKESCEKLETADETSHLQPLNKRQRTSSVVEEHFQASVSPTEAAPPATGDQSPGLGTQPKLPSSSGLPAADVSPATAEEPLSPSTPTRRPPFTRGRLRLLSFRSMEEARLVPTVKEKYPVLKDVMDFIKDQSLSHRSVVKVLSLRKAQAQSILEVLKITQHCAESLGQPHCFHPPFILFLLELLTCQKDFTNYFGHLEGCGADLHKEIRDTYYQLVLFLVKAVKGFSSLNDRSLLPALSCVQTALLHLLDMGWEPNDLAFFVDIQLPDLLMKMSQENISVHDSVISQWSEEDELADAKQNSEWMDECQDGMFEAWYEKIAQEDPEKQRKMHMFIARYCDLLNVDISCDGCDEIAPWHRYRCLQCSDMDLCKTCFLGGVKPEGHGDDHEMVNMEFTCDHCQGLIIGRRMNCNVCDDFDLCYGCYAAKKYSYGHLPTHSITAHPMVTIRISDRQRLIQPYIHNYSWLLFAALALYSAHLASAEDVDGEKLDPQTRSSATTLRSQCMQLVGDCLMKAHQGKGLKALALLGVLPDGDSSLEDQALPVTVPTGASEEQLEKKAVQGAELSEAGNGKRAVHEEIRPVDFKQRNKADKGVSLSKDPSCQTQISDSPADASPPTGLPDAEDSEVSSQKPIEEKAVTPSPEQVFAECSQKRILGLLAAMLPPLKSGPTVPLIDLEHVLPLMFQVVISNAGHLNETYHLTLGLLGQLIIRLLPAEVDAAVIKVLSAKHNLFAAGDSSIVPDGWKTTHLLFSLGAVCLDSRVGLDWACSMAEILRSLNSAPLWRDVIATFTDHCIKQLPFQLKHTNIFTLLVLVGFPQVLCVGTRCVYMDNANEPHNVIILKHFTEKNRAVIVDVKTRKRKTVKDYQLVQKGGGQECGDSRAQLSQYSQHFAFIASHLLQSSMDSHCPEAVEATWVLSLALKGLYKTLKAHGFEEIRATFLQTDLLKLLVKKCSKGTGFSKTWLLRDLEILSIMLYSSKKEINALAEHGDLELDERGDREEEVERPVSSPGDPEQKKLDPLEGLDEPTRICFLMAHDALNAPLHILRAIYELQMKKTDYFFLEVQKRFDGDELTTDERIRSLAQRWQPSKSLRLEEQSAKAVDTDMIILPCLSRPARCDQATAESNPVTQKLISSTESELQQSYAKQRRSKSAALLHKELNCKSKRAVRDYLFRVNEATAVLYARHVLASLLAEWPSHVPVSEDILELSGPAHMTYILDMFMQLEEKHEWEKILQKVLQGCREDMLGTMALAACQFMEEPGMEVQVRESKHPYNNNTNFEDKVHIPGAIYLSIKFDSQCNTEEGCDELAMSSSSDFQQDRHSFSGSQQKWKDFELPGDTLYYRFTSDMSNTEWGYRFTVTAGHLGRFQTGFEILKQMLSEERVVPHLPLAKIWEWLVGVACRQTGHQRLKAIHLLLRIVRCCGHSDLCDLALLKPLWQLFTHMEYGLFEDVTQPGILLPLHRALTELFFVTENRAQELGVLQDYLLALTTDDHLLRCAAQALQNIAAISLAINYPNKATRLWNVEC
UniProt Q8TD26: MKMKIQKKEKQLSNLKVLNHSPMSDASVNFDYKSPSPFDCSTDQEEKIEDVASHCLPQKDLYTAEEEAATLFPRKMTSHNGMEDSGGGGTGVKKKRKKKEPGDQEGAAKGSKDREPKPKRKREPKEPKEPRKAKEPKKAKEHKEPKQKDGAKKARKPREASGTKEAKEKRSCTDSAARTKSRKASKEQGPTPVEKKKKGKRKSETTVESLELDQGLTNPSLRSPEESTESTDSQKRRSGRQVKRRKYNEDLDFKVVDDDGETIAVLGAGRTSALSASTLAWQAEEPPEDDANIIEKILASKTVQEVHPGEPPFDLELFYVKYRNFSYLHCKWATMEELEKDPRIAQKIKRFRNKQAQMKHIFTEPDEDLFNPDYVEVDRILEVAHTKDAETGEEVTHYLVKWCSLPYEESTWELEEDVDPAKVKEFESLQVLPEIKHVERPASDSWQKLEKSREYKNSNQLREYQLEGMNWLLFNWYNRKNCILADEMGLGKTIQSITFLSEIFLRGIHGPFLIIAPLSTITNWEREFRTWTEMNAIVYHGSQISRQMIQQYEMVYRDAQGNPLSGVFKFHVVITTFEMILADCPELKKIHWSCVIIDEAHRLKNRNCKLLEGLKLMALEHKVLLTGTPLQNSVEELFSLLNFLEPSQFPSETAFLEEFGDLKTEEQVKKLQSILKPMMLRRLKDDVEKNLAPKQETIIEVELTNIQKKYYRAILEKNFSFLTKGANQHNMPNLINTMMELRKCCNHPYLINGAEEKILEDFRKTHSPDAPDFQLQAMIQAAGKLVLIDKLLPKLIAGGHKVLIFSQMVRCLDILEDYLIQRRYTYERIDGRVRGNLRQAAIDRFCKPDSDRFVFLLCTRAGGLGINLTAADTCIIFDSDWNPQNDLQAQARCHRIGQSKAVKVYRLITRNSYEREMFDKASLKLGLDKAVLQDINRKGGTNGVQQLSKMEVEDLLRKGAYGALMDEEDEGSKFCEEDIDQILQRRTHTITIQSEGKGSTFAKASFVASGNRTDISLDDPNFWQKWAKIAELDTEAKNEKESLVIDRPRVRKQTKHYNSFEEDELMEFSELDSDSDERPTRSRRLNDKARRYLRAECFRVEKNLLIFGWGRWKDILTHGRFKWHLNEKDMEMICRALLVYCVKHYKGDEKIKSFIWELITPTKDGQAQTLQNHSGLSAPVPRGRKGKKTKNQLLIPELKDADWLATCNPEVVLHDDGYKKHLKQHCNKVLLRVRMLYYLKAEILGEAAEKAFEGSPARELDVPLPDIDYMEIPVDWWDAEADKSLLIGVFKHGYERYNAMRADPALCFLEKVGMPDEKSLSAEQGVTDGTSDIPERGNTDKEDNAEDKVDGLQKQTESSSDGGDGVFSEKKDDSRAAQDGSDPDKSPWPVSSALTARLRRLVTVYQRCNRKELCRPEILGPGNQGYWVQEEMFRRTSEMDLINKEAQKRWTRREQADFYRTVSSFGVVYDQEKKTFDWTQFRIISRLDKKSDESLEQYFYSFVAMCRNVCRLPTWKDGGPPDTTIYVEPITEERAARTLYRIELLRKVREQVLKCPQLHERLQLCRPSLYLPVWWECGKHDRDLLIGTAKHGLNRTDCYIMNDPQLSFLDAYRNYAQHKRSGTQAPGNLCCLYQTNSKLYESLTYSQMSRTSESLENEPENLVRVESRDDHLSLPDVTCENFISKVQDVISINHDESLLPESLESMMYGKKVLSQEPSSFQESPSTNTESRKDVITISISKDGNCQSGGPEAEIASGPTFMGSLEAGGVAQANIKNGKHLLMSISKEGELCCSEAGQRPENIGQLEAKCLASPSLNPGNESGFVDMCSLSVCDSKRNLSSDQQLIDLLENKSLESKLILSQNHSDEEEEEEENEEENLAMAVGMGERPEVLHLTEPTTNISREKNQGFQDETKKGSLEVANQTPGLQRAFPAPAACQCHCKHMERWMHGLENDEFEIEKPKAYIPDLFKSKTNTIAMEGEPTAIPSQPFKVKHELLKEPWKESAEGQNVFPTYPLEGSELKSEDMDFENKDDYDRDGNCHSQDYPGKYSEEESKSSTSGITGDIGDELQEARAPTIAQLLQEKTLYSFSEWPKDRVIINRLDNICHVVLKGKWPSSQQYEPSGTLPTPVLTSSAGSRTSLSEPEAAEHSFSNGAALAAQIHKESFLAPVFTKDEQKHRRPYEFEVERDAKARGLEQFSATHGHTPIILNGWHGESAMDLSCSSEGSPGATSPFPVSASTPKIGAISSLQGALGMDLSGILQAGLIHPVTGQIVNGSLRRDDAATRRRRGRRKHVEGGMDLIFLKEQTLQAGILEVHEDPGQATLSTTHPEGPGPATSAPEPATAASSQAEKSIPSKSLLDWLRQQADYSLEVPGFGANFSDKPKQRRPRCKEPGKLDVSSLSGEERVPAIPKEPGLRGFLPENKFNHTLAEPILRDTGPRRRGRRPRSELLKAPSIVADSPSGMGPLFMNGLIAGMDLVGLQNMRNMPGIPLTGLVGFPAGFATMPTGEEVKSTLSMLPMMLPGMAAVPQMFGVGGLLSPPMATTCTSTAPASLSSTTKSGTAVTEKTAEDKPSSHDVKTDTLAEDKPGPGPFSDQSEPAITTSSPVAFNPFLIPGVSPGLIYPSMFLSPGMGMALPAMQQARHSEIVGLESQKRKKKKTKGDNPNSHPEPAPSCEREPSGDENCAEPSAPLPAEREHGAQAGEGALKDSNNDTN

Substance: Chromodomain Helicase DNA Binding Protein 6 (CHD6) (from UniProt Q8TD26 1-2715)
- binding: binds
